The nature of this data set: general procedure: Fmoc solid-phase peptide synthesis; Rink-Amide-AM-PS. The conditions noted are these: whole synthesis, scale 0.100 mmol, one disulfide bridge, sequence written open.

Among the data in US9982017B2 (priority 2012, dated 2018) are isolated mass values, retold here.

[ ]: non-standard residue; d: D form. pGlu = O=C1CC[C@@H](C(=O)O)N1; Nle = CCCC[C@H](N)C(=O)O

“[pGlu]RPRLCHKGP[Nle]CF-NH2 (cysteine pairing not given here)”: the isolated mass is on record as 50.5 mg.
